# Laboratory results as given in the supplement of paper PMC8728848.
# The other results are listed elsewhere or left out.
# B1: AT3G44510(29) (Arabidopsis thaliana), F4J341 (protein)
# chain: MEEHLQGRIKLHDGRYLAYKERGVPKDDAKFTIVLVHGFGSSKDMNFNVSQELVNEIGIYFVLYDRAGYGESDPNPKRSLKSEAYDVQELADGLEIGSRFYLIGISMGSYTVWSCLKHIPQRLAGVAMVAPVVNFRWPSIPKSLMPKDYRREVAKWSVWIANYFPGLLQWLVTQNMFSTTSMLEKNPVYFNDQDIEVLKHIKGFPMLTKEKLRERGVFGTLRSDFLVAFGDWDFDPADLPDPSLSGPEKGSSSVHIWQGYEDKVMPFQLQRCLCRKLPWIRYHEVPKGGHLIVHYDGICDAILKSLLLGEDLPMYKPKAVITEPA
# Columns and labels:
# Assay in all cases: glycan array binding signal (z-score within array); higher = stronger binding
# Details in all cases: glycan notation: IUPAC condensed, linker removed
# [1] = biological target: Fuc(a1-2)[GalNAc(a1-3)]Gal(b1-3)GlcNAc(b1-3)GalNAc
# Procedure, shortened: (§1)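 Columns mapping to the same glycan were averaged after glycan names were converted to IUPAC-condensed notation. The data come from 3228 arrays in the Consortium for Functional Glycomics database, limited to those with an available protein sequence. Binding is reported as a within-array Z-score averaged across arrays of one protein sequence and across linkers.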
# [2] = biological target: Fuc(a1-2)[GalNAc(a1-3)]Gal(b1-3)GlcNAc(b1-6)GalNAc
# Procedure, shortened: as §1
# [3] = biological target: Fuc(a1-2)[GalNAc(a1-3)]Gal(b1-4)Glc
# Procedure, shortened: as §1
# [4] = biological target: Fuc(a1-2)[GalNAc(a1-3)]Gal(b1-4)GlcNAc
# Procedure, shortened: as §1
# [5] = biological target: Fuc(a1-2)[GalNAc(a1-3)]Gal(b1-4)GlcNAc(b1-2)Man
# Procedure, shortened: as §1
# [6] = biological target: Fuc(a1-2)[GalNAc(a1-3)]Gal(b1-4)GlcNAc(b1-2)Man(a1-3)[Fuc(a1-2)[GalNAc(a1-3)]Gal(b1-4)GlcNAc(b1-2)Man(a1-6)]Man(b1-4)GlcNAc(b1-4)GlcNAc
# Procedure, shortened: as §1
# [7] = biological target: Fuc(a1-2)[GalNAc(a1-3)]Gal(b1-4)GlcNAc(b1-2)Man(a1-3)[Fuc(a1-2)[GalNAc(a1-3)]Gal(b1-4)GlcNAc(b1-2)Man(a1-6)]Man(b1-4)GlcNAc(b1-4)[Fuc(a1-6)]GlcNAc
# Procedure, shortened: as §1
# [8] = biological target: Fuc(a1-2)[GalNAc(a1-3)]Gal(b1-4)GlcNAc(b1-3)Gal(b1-4)GlcNAc
# Procedure, shortened: as §1
# [9] = biological target: Fuc(a1-2)[GalNAc(a1-3)]Gal(b1-4)GlcNAc(b1-3)Gal(b1-4)GlcNAc(b1-3)Gal(b1-4)GlcNAc
# Procedure, shortened: as §1
# [10] = biological target: Fuc(a1-2)[GalNAc(a1-3)]Gal(b1-4)GlcNAc(b1-3)GalNAc
# Procedure, shortened: as §1
# [11] = biological target: Fuc(a1-2)[GalNAc(a1-3)]Gal(b1-4)GlcNAc(b1-3)[Fuc(a1-2)[GalNAc(a1-3)]Gal(b1-4)GlcNAc(b1-6)]GalNAc
# Procedure, shortened: as §1
# [12] = biological target: Fuc(a1-2)[GalNAc(a1-3)]Gal(b1-4)GlcNAc(b1-6)GalNAc
# Procedure, shortened: as §1
# [13] = biological target: Fuc(a1-2)[GalNAc(a1-3)]Gal(b1-4)[Fuc(a1-3)]GlcNAc
# Procedure, shortened: as §1
# [14] = biological target: Fuc(a1-2)[GalNAc(a1-3)]Gal(b1-4)[Fuc(a1-3)]GlcNAc(b1-3)GalNAc
# Procedure, shortened: as §1
# [15] = biological target: Fuc(a1-2)[GalNAc(a1-4)]Gal(b1-4)GlcNAc
# Procedure, shortened: as §1
# [16] = biological target: Fuc(a1-2)[GalNAc(b1-3)]Gal
# Procedure, shortened: as §1
# [17] = biological target: Fuc(a1-3)GlcNAc
# Procedure, shortened: as §1
# [18] = biological target: Fuc(a1-3)[Gal(b1-4)]Glc6S
# Procedure, shortened: as §1
# [19] = biological target: Fuc(a1-3)[Gal(b1-4)]GlcNAc
# Procedure, shortened: as §1
# [20] = biological target: Fuc(a1-3)[Gal(b1-4)]GlcNAc(b1-2)Man
# Procedure, shortened: as §1
# [21] = biological target: Fuc(a1-3)[Gal(b1-4)]GlcNAc(b1-2)Man(a1-3)[Fuc(a1-3)[Gal(b1-4)]GlcNAc(b1-2)Man(a1-6)]Man(b1-4)GlcNAc(b1-4)GlcNAc
# Procedure, shortened: as §1
# [22] = biological target: Fuc(a1-3)[Gal(b1-4)]GlcNAc(b1-2)Man(a1-3)[Fuc(a1-3)[Gal(b1-4)]GlcNAc(b1-2)Man(a1-6)]Man(b1-4)GlcNAc(b1-4)[Fuc(a1-6)]GlcNAc
# Procedure, shortened: as §1
# [23] = biological target: Fuc(a1-3)[Gal(b1-4)]GlcNAc(b1-3)Gal(b1-3)[Fuc(a1-4)]GlcNAc
# Procedure, shortened: as §1
# [24] = biological target: Fuc(a1-3)[Gal(b1-4)]GlcNAc(b1-3)Gal(b1-4)[Fuc(a1-3)]GlcNAc
# Procedure, shortened: as §1
# [25] = biological target: Fuc(a1-3)[Gal(b1-4)]GlcNAc(b1-3)Gal(b1-4)[Fuc(a1-3)]GlcNAc(b1-3)Gal(b1-4)[Fuc(a1-3)]GlcNAc
# Procedure, shortened: as §1
# [26] = biological target: Fuc(a1-3)[Gal(b1-4)]GlcNAc(b1-3)GalNAc
# Procedure, shortened: as §1
# [27] = biological target: Fuc(a1-3)[Gal(b1-4)]GlcNAc(b1-6)GalNAc
# Procedure, shortened: as §1
# [28] = biological target: Fuc(a1-3)[Gal(b1-4)]GlcNAc(b1-6)[Gal(b1-3)GlcNAc(b1-3)]Gal(b1-4)Glc
# Procedure, shortened: as §1
# [29] = biological target: Fuc(a1-3)[Gal(b1-4)]GlcNAc6S
# Procedure, shortened: as §1
# [30] = biological target: Fuc(a1-3)[Gal3S(b1-4)]Glc
# Procedure, shortened: as §1
# [31] = biological target: Fuc(a1-3)[Gal3S(b1-4)]GlcNAc
# Procedure, shortened: as §1
# [32] = biological target: Fuc(a1-3)[Gal3S(b1-4)]GlcNAc6S
# Procedure, shortened: as §1
# [33] = biological target: Fuc(a1-3)[GalNAc(b1-4)]GlcNAc
# Procedure, shortened: as §1
# [34] = biological target: Fuc(a1-3)[GalNAc(b1-4)]GlcNAc6S
# Procedure, shortened: as §1
# [35] = biological target: Fuc(a1-4)GlcNAc
# Procedure, shortened: as §1
# [36] = biological target: Fuc(b1-3)GlcNAc
# Procedure, shortened: as §1
# [37] = biological target: Gal(a1-2)Gal
# Procedure, shortened: as §1
binder,measurement,setting,value
B1,glycan array binding signal (z-score),[1],-0.739
same,glycan array binding signal (z-score),[2],0.219
same,glycan array binding signal (z-score),[3],-0.229
same,glycan array binding signal (z-score),[4],-0.277
same,glycan array binding signal (z-score),[5],-0.106
same,glycan array binding signal (z-score),[6],-0.936
same,glycan array binding signal (z-score),[7],-0.273
same,glycan array binding signal (z-score),[8],-0.137
same,glycan array binding signal (z-score),[9],-0.339
same,glycan array binding signal (z-score),[10],-0.566
same,glycan array binding signal (z-score),[11],-0.622
same,glycan array binding signal (z-score),[12],-0.284
same,glycan array binding signal (z-score),[13],-0.818
same,glycan array binding signal (z-score),[14],6.03
same,glycan array binding signal (z-score),[15],-0.7
same,glycan array binding signal (z-score),[16],-0.246
same,glycan array binding signal (z-score),[17],-0.34
same,glycan array binding signal (z-score),[18],-0.61
same,glycan array binding signal (z-score),[19],-0.611
same,glycan array binding signal (z-score),[20],0.643
same,glycan array binding signal (z-score),[21],-0.532
same,glycan array binding signal (z-score),[22],-0.197
same,glycan array binding signal (z-score),[23],0.267
same,glycan array binding signal (z-score),[24],-0.232
same,glycan array binding signal (z-score),[25],0.242
same,glycan array binding signal (z-score),[26],-0.416
same,glycan array binding signal (z-score),[27],-0.785
same,glycan array binding signal (z-score),[28],-0.697
same,glycan array binding signal (z-score),[29],-0.176
same,glycan array binding signal (z-score),[30],0.074
same,glycan array binding signal (z-score),[31],-0.165
same,glycan array binding signal (z-score),[32],-0.612
same,glycan array binding signal (z-score),[33],-0.122
same,glycan array binding signal (z-score),[34],-0.561
same,glycan array binding signal (z-score),[35],0.816
same,glycan array binding signal (z-score),[36],-0.537
same,glycan array binding signal (z-score),[37],-0.084

# Some of the entries so far, bar-delimited.
binder | measurement | setting | value
B1 | glycan array binding signal (z-score) | [29] | -0.176
same | glycan array binding signal (z-score) | [36] | -0.537
